Reference: PubChem BioAssay AID504834 (National Center for Advancing Translational Sciences (NCATS), 2011)
The campaign covered roughly 320,000 compounds. About 22,000 (6.9%) were called active. This list was built around the results that the source calls inconclusive (neither active nor inactive); the mix of calls is not that of the screen. The call rests on the fitted dose curve; in most records, active means well fitted inhibition curve with a large enough effect; inconclusive means small, poorly fitted or top-dose-only effect, or another doubt; inactive means no such curve, though single readings can be large or run the other way. Potencies beside an inconclusive call are fits to weak or partial responses and may not hold up.

Test: Primary qHTS for delayed death inhibitors of the malarial parasite plastid, 96 hour incubation
Settings: P. falciparum luciferase reporter growth; series mostly up to 28.7 µM; activity change, negative = inhibition: at the top concentration
Outline: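 Compounds incubated with erythrocytes infected by luciferase-expressing P. falciparum (2% hematocrit, 0.05% parasitemia final) for 96 hours, 37 C in 5% CO2. Growth inhibition scored as decreased luciferase luminescence.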
On the % scale 0 is the no-effect control and ±100 the full control effect; potency means the concentration at half of the fitted maximal effect.

Structure (SMILES)	Potency	activity change, negative = inhibition
COC(=O)CCCC1=CC2=CC(=O)C(C)(OC(=O)c3cccs3)C(=O)C2=CN1CC(C)C (centres undefined)	inconclusive: 18.5 µM [inhibitor, single point]	–
CCOc1ccc(/C(CCC(=O)O)=N/NC(=S)NC(C)C)cc1	inconclusive: 0.208 µM [inhibitor, full curve, poor fit]	–
CC(C)(C)NC(=O)Cn1c(SCC(=O)Nc2nccs2)nc2ccccc21	inconclusive: 18.5 µM [inhibitor, single point]	–
COc1ccc(C2CC(c3cccs3)=NN2C(=O)CN2CCCCC2)cc1 (centres undefined)	–	inactive: -25.3% [at 5.75 µM]
COc1ccccc1CNC(=O)COc1ccc(S(=O)(=O)N2CCOCC2)cc1	inconclusive: 9.28 µM [inhibitor, single point]	–
Cc1cc(C)nc(Sc2nc(C)nc3c2oc2ccccc23)n1	inconclusive: 10.4 µM [inhibitor, single point]	–
Cc1cccc(OCC(=O)Nc2ccc(C(=O)O)cc2NC(=O)COc2cccc(C)c2)c1	inconclusive: 9.28 µM [inhibitor, single point]	–
CCOC(=O)N1CCC(NC(=O)CSCc2nc(-c3sccc3C)oc2C)CC1	inconclusive: 0.0329 µM [inhibitor, full curve, poor fit]	–
O=C(C1CCN(S(=O)(=O)c2cccs2)CC1)N1CCN(c2ccccc2)CC1	inconclusive: 0.0738 µM [inhibitor, full curve, poor fit]	–
Cc1cccc(C(C)Nc2ccc([N+](=O)[O-])cn2)c1 (centres undefined)	inconclusive: 11.7 µM [inhibitor, partial curve, poor fit]	–
O=C1CC(C(=O)Nc2ccc(F)cc2)S/C(=N\N=C\c2ccco2)N1 (centres undefined)	inconclusive: 18.5 µM [inhibitor, single point]	–
COc1ccc(N2CCN(c3ncnc4c3[nH]c3ccccc34)CC2)cc1	inconclusive: 0.329 µM [inhibitor, full curve, poor fit]	–
CN1C(=O)N(CC(=O)N2CCN(S(=O)(=O)c3ccc(Cl)s3)CC2)C(=O)C12CCCCC2	inconclusive: 5.86 µM [inhibitor, partial curve, poor fit]	–
CN(C)c1ccc(NC(=O)CSc2nnc(-c3ccco3)c(-c3ccco3)n2)cc1	inconclusive: 0.208 µM [inhibitor, full curve]	–
CC1=C(C(=O)N2CCN(c3cc(C)ccc3C)CC2)C2(CCC(C)CC2)OC1=O (centres undefined)	inconclusive: 18.5 µM [inhibitor, single point]	–
O=C(Cc1cccs1)N/N=C/C(Cl)=C/c1ccccc1	inconclusive: 2.62 µM [inhibitor, single point]	–
CCOC(=O)N1CCN(C(=O)c2cc(-c3ccc(OCC)cc3)nc3ccccc23)CC1	active: 3.7 µM	–
CCc1cc2c(NCCN3CCCCC3)ncnc2s1	inconclusive: 18.5 µM [inhibitor, single point]	–
O=C(NNC(=S)NC1CCCCC1)c1ccccc1O	active: 2.33 µM	–
CNC(=S)NNc1nncc2ccccc12	inconclusive: 0.0009 µM [inhibitor]	–
Nc1ccc(S(=O)(=O)Nc2nccc(/C=C/c3cccc(Br)c3)n2)cc1	–	inactive: -3.19%
COC12C(COC(N)=O)C3=C(C(=O)C(C)=C(N)C3=O)N1CC1C2N1C (centres undefined)	inconclusive: 0.233 µM [inhibitor, full curve]	–

A section from further up:
Structure (SMILES)	Potency	activity change, negative = inhibition
Cc1cccc(OCC(=O)Nc2ccc(C(=O)O)cc2NC(=O)COc2cccc(C)c2)c1	inconclusive: 9.28 µM [inhibitor, single point]	–
CCOC(=O)N1CCC(NC(=O)CSCc2nc(-c3sccc3C)oc2C)CC1	inconclusive: 0.0329 µM [inhibitor, full curve, poor fit]	–
O=C(C1CCN(S(=O)(=O)c2cccs2)CC1)N1CCN(c2ccccc2)CC1	inconclusive: 0.0738 µM [inhibitor, full curve, poor fit]	–

Further entries follow.

Structure (SMILES)	Potency	activity change, negative = inhibition
C=CCn1c(SCn2nnc3ccccc3c2=O)nnc1-c1ccc(Cl)cc1	active: 11.7 µM	–
Brc1ccc(-c2nn3c(Cc4ccccc4)nnc3s2)o1	inconclusive: 3.7 µM [inhibitor, single point]	–
O=C(Nc1cccc(F)c1)Nc1ccc(Cl)cn1	–	inactive: -20.3%
CCN1CCN(CCCNC(=O)c2cc3c(s2)-c2ccccc2OC3)CC1	inconclusive: 10.4 µM [inhibitor, partial curve, poor fit]	–
Cc1ccc(S(=O)(=O)N2CCN(CC(=O)Nc3ccc([N+](=O)[O-])cc3)CC2)cc1C	inconclusive: 6.57 µM [inhibitor, partial curve, poor fit]	–
O=C1CC(c2ccccc2)Cc2nc(N3CCc4ccccc4C3)ncc21 (centres undefined)	inconclusive: 0.0738 µM [inhibitor, full curve, poor fit]	–
COC(=O)c1c(-c2ccc(Br)cc2)noc1N	inconclusive: 9.28 µM [inhibitor, partial curve, poor fit]	–
O=S(=O)(Nc1cccnc1)c1ccc(Br)c2ccccc12	inconclusive: 2.94 µM [inhibitor, full curve]	–
CCCCOc1ccc(C(=O)N/C(=C/C=C/c2ccccc2)C(=O)NC)cc1	–	inactive: 180%
O=C(c1ccccc1)C(CCC(CN1CCOCC1)C(=O)c1ccccc1)CN1CCOCC1 (centres undefined)	inconclusive: 14.7 µM [inhibitor, partial curve, poor fit]	–
COc1ccc(NC(=O)/C(C#N)=C\c2cc(OC)c(OCc3ccc(C(=O)O)cc3)cc2Br)cc1	inconclusive: 2.94 µM [inhibitor, single point]	–
Cc1ccc(C)c(S(=O)(=O)N2CCCC2CNC(=O)C(=O)NCCc2ccccc2)c1 (centres undefined)	inconclusive: 18.5 µM [inhibitor, single point]	–
Cc1ccc(CNC(=O)C2CC(c3ccccc3F)=NO2)cc1 (centres undefined)	–	inactive: 49.8%
CCc1ccc(C(=O)CN2C(=O)C(C)N(c3ccc(C)cc3)C2=O)cc1 (centres undefined)	–	inactive: 25.1%
Cc1ccc(S(=O)(=O)N2CCCCC2)cc1NC(=O)CCOc1ccccc1	inconclusive: 13.1 µM [inhibitor, single point]	–
S=C(Nc1ccc(Cl)cc1)NC1CC2CCCC(C1)N2C1CC1 (centres undefined)	active: 10.4 µM	–
O=C(CCCn1nnnc1CN1CCOCC1)N1CCC(c2ccccc2F)C1 (centres undefined)	inconclusive: 14.7 µM [inhibitor, partial curve, poor fit]	–
CCOC(=O)N1CCN(c2nc(C)cc(C(F)(F)F)n2)CC1	inconclusive: 9.28 µM [inhibitor, partial curve, poor fit]	–
CCCN(CC(=O)Nc1ccccc1OC)C(=O)c1cc(S(=O)(=O)NCc2ccccc2)ccc1C	inconclusive: 18.5 µM [inhibitor, partial curve, poor fit]	–
CC(=O)Nc1ccc(NC(=O)/C(=C/c2ccco2)NC(=O)c2ccccc2)cc1	inconclusive: 2.08 µM [inhibitor, full curve, poor fit]	–
O=C(Nc1cccc2ccccc12)c1ccc([N+](=O)[O-])o1	active: 5.22 µM	–
CCOc1ccc(NC(=O)CCN2CCN(S(=O)(=O)c3ccc(F)cc3)CC2)cc1	inconclusive: 18.5 µM [inhibitor, single point]	–

Structure (SMILES)	Potency	activity change, negative = inhibition
Cc1ccc(S(=O)(=O)N2CCN(C(=O)c3cc4c(C)nn(-c5ccccc5)c4s3)CC2)cc1	inconclusive: 0.738 µM [inhibitor, full curve, poor fit]	–
CN(C)c1ccc(/C=C2/C(=O)N(c3ccc([N+](=O)[O-])cc3)N=C2N2CCOCC2)cc1	inconclusive: 13.1 µM [inhibitor, partial curve]	–
O=C(/C=C/c1ccc(F)cc1)Nc1nc2ccccc2[nH]1	–	inactive: 3.16%
Cc1ccc(CN2CCC(n3nccc3NC(=O)C3CCOC3)CC2)cc1C (centres undefined)	inconclusive: 18.5 µM [inhibitor, partial curve, poor fit]	–
Cc1ccc2nc(SC(C)C(=O)Nc3cccc([N+](=O)[O-])c3)[nH]c2c1 (centres undefined)	inconclusive: 18.5 µM [inhibitor, single point]	–
CC1CCCCC12NC(=O)N(CC(=O)NCCc1ccc(S(N)(=O)=O)cc1)C2=O (centres undefined)	inconclusive: 10.4 µM [inhibitor, single point]	–
CCOC(=O)c1nccnc1C(=O)Nc1cccc(C(F)(F)F)c1	inconclusive: 16.5 µM [inhibitor, partial curve, poor fit]	–
COc1cnc(-c2ccccn2)nc1Oc1ccccc1	inconclusive: 0.657 µM [inhibitor, full curve]	–
Cc1cc(C)cc(OCC(=O)OCC(=O)Nc2c(C)n(C)n(-c3ccccc3)c2=O)c1	–	inactive: 12.3%
CC(=O)Oc1ccc(C(=O)Nc2nccs2)cc1	inconclusive: 18.5 µM [inhibitor, single point]	–
CC(NC(=O)C12CC3CC(CC(C3)C1)C2)c1ccc2c(c1)OCCO2 (centres undefined)	inconclusive: 11.7 µM [inhibitor, single point]	–
O=S(=O)(NCc1ccccc1)c1ccc(-n2cccn2)cc1	inconclusive: 8.28 µM [inhibitor, partial curve]	–
Clc1ccsc1-c1csc(-c2cccnc2)n1	inconclusive: 16.5 µM [inhibitor, single point]	–
CCCCCc1ccc(-c2cn(Cc3ccc([N+](=O)[O-])cc3)nn2)cc1	inconclusive: 11.7 µM [inhibitor, single point]	–
COc1ccc(OCC(=O)NNC(=O)c2cc3ccccc3o2)cc1	–	inactive: -8.61%
Cn1nnnc1SCC(=O)Nc1cc(S(=O)(=O)N2CCCC2)ccc1Cl	inconclusive: 20.8 µM [inhibitor, partial curve, poor fit]	–
CCOC(=O)c1c(-c2ccc(C)o2)csc1NC(=O)CSc1ncn[nH]1	active: 14.7 µM	–
CCOc1ccc(-n2c(-c3cccs3)nc3ccccc3c2=O)cc1	active: 9.28 µM	–
CCCCC(=O)N/N=C/c1c(O)n(Cc2ccco2)c(=O)[nH]c1=O	inconclusive: 18.5 µM [inhibitor, single point]	–
C/C(=N/OCC(=O)NCCCCCCNC(=O)CO/N=C(/C)c1cccs1)c1cccs1	inconclusive: 11.7 µM [inhibitor, single point]	–
